Measured values from paper PMC6194124.
These are yes or no findings as the source states them, for the method shown. Binding seen in cells or lysates may run through a third protein. Some entries that bind do so weakly or less than the wild type. Where a sequence is shown, tags or fusion partners need not be part of it.

Amino acid sequences for entries named in this document (tags omitted).
UniProt Q925U4: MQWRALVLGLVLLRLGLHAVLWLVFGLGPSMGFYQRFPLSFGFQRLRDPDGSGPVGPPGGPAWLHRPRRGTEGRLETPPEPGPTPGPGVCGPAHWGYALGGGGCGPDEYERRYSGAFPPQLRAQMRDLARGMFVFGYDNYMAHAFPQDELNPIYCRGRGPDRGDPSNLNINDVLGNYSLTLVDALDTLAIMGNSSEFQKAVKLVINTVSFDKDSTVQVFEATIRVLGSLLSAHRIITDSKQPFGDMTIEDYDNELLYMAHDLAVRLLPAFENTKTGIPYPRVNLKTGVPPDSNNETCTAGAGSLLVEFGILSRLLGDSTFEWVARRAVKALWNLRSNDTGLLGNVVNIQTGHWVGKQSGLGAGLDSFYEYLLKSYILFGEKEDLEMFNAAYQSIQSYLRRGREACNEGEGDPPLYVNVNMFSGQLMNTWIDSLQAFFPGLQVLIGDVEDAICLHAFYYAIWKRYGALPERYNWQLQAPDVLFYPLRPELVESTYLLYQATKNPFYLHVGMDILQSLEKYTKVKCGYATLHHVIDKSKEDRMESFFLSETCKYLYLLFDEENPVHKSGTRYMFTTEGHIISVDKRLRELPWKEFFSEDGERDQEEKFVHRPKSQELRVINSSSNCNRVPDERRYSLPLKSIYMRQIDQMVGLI

How the values were obtained:
EDEM2-HA = biological target: T1, EDEM2-HA (UniProt Q9BV94); experiment: co-IP; HEK 293 cells expressing EDEM1-HA or EDEM2-HA with FLAG-TXNDC11 or FLAG-PDI; lysed in mild conditions (1% NP-40, 50 mM Tris/HCl pH 8, 150 mM NaCl); immunoprecipitated with anti-EDEM1 or anti-EDEM2, immunoblotted with anti-FLAG
T1 sequence: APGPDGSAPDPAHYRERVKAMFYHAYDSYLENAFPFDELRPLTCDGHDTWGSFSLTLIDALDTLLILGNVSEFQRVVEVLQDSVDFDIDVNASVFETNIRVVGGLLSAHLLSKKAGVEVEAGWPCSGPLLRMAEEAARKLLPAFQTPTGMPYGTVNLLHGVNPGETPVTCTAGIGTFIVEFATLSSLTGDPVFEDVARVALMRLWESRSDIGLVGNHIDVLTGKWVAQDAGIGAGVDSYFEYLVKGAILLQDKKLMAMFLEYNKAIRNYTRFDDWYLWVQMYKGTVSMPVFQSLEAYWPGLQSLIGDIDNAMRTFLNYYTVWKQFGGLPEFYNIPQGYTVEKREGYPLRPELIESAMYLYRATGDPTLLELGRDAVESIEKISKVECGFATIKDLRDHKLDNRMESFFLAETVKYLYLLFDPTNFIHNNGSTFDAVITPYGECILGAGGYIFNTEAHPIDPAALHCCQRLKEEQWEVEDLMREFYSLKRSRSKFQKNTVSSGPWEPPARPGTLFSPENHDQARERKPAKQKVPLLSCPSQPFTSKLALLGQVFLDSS

EDEM1-HA = EDEM1-HA (UniProt Q925U4); experiment: as above

B1: FLAG-TXNDC11 (enzyme, UniProt Q6PKC3 1-985)
chain: MSECGGRGGGSSSSEDAEDEGGGGGGPAGSDCLSSSPTLATASSAGRLRRGLRGAFLMARQRPELLCGAVALGCALLLALKFTCSRAKDVIIPAKPPVSFFSLRSPVLDLFQGQLDYAEYVRRDSEVVLLFFYAPWCGQSIAARAEIEQAASRLSDQVLFVAINCWWNQGKCRKQKHFFYFPVIYLYHRSFGPIEYKGPMSAVYIEKFVRRVMKPLLYIPSQSELLDFLSNYEPGVLGYFEFSGSPQPPGYLTFFTSALHSLKKALESTSSPRALVSFTGEWHLETKIYVLDYLGTVRFGVITNKHLAKLVSLVHSGSVYLHRHFNTSLVFPREVLNYTAENICKWALENQETLFRWLRPHGGKSLLLNNELKKGPALFLFIPFNPLAESHPLIDEITEVALEYNNCHGDQVVERLLQHLRRVDAPVLESLALEVPAQLPDPPTITASPCCNTVVLPQWHSFSRTHNVCELCVNQTSGGMKPSSVSVPQCSFFEMAAALDSFYLKEQTFYHVASDSIECSNFLTSYSPFSYYTACCRTISRGVSGFIDSEQGVFEAPTVAFSSLEKKCEVDAPSSVPHIEENRYLFPEVDMTSTNFTGLSCRTNKTLNIYLLDSNLFWLYAERLGAPSSTQVKEFAAIVDVKEESHYILDPKQALMKLTLESFIQNFSVLYSPLKRHLIGSGSAQFPSQHLITEVTTDTFWEVVLQKQDVLLLYYAPWCGFCPSLNHIFIQLARNLPMDTFTVARIDVSQNDLPWEFMVDRLPTVLFFPCNRKDLSVKYPEDVPITLPNLLRFILHHSDPASSPQNVANSPTKECLQSEAVLQRGHISHLEREIQKLRAEISSLQRAQVQVESQLSSARRDEHRLRQQQRALEEQHSLLHAHSEQLQALYEQKTRELQELARKLQELADASENLLTENTWLKILVATMERKLEGRDGAESLAAQREVHPKQPEPSATPQLPGSSPPPANVSATLVSERNKENRTD
EDEM2-HA
  binding: binds
EDEM1-HA
  binding: binds
